Experimental data: PubChem BioAssay AID743454 (Peter MacCallum Cancer Centre, 2014)
Here is one part, drawn at random, of about 18,000 deposited reagents. Over the whole deposit, 450 (2.5%) are marked active. 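Single biological run; no consistent viability z cut-off exists, so the class columns, not z-scores, define the calls.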 Entries without a mark were called inactive.

- Test: 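Knock-downs lowering viability or raising caspase 3/7 activity in vorinostat-treated resistant cells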 (primary screen)
- Cells: human HCT116-VR colon cancer cells, selected for vorinostat resistance
- Reagents: siRNA pool against human genes, 40 nM siRNA pool
- Duration: vorinostat for 24 h, read-out about 72 h after transfection
- Conditions: vorinostat at 2.5 µM final
- Measurement: 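Cell viability by CellTiter-Fluor and caspase 3/7 activity by luminescence, each scaled to mock wells per plate, duplicates averaged, then robust z-scored over all plates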
- Reading the numbers: viability robust z-score: higher = more viable cells than screen typical; caspase robust z-score: higher = more caspase 3/7 activity than screen typical
- Rule for the call: 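Hits are knock-downs in viability class RV1/RV2 or caspase class CA1/CA2, excluding ones that killed cells in the no-drug cell-count arm; hits then retested with single siRNAs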

no.	Target gene	viability hit class	caspase hit class	viability robust z-score	caspase robust z-score
1	SUSD3 (sushi domain containing 3)	no change	no change	-0.59	-1.04
2	ADD2 (adducin 2)	no change	no change	0.39	0.35
3	DDC (dopa decarboxylase)	no change	no change	-0.32	1.65
4	IWS1 (interacts with SUPT6H, CTD assembly factor 1)	no change	no change	0.23	-1
5	C22orf15 (chromosome 22 open reading frame 15)	no change (active)	CA1 (caspase activation)	-0.02	7.7
6	MPV17L (MPV17 mitochondrial inner membrane protein like)	no change	no change	-2.16	-0.15
7	AMY2B (amylase alpha 2B)	no change	no change	-0.45	-0.8
8	CRABP2 (cellular retinoic acid binding protein 2)	no change	no change	-0.48	0.08
9	MEOX1 (mesenchyme homeobox 1)	no change	no change	0.5	1.34
10	UBXN1 (UBX domain protein 1)	no change	no change	0.38	2.52
11	PEX12 (peroxisomal biogenesis factor 12)	no change	no change	-0.54	3.52
12	SUMO4 (small ubiquitin like modifier 4)	no change	no change	0.83	2.27
13	CDKL2 (cyclin dependent kinase like 2)	no change	no change	-0.32	-1.01
14	HTR6 (5-hydroxytryptamine receptor 6)	no change	no change	0.65	0.31
15	MED29 (mediator complex subunit 29)	no change	no change	1.65	-0.12
16	CPED1 (cadherin like and PC-esterase domain containing 1)	no change	no change	0.45	1.05
17	DNAJC28 (DnaJ heat shock protein family (Hsp40) member C28)	no change	no change	-0.24	1.31
18	CLDND1 (claudin domain containing 1)	no change	no change	-1.73	-0.48
19	DENND10 (DENN domain containing 10)	no change	no change	1.79	0.14
20	ASPHD2 (aspartate beta-hydroxylase domain containing 2)	no change	no change	0.97	0.8
21	ABHD11 (abhydrolase domain containing 11)	no change	no change	2.02	1.86
22	ZNF394 (zinc finger protein 394)	no change	no change	-0.5	0.72
23	FCHO1 (FCH and mu domain containing endocytic adaptor 1)	no change	no change	-0.1	3.23
24	OSCP1	no change	no change	-1.87	-0.54
25	ZNF324B (zinc finger protein 324B)	no change	no change	-0.14	0.98
26	SMIM43 (small integral membrane protein 43)	no change	no change	-0.78	3.82
27	KANK4 (KN motif and ankyrin repeat domains 4)	no change	no change	0.29	0.42
28	RNF41 (ring finger protein 41)	no change	no change	-0.42	-0.24
29	TNRC6C (trinucleotide repeat containing adaptor 6C)	no change	no change	-0.92	1.6
30	KCNJ15 (potassium inwardly rectifying channel subfamily J member 15)	no change	no change	-0.68	0.23
31	HLA-L (major histocompatibility complex, class I, L (pseudogene))	no change	no change	-2.63	0.82
32	ITFG1 (integrin alpha FG-GAP repeat containing 1)	no change	no change	0.38	0.12
33	ZDHHC12 (zDHHC palmitoyltransferase 12)	no change	no change	-0.64	-0.58
34	LYPD6B (LY6/PLAUR domain containing 6B)	no change	no change	-0.02	-0.42
35	BMPR1A (bone morphogenetic protein receptor type 1A)	no change	no change	1.22	-0.11
36	LGALS9B (galectin 9B)	no change	no change	-0.02	-1.12
37	SCAF11 (SR-related CTD associated factor 11)	no change	no change	0.72	1.22
38	TTPAL (alpha tocopherol transfer protein like)	no change	no change	2.19	1.54
39	OR52K2 (olfactory receptor family 52 subfamily K member 2)	no change	no change	0.78	-0.17

4 consecutive entries from above:
no.	Target gene	viability hit class	caspase hit class	viability robust z-score	caspase robust z-score
33	ZDHHC12 (zDHHC palmitoyltransferase 12)	no change	no change	-0.64	-0.58
34	LYPD6B (LY6/PLAUR domain containing 6B)	no change	no change	-0.02	-0.42
35	BMPR1A (bone morphogenetic protein receptor type 1A)	no change	no change	1.22	-0.11
36	LGALS9B (galectin 9B)	no change	no change	-0.02	-1.12
